Experimental data: paper PMC2386837
Results are given in words; binding and its absence hold for the method and conditions named. In cells and extracts the contact can be indirect. Some binding calls cover weakened binding; strength is not graded here. Tags and fused reporters may be left off the sequences shown.

Tests used:
[1] = biological target: T1, V5-tagged Draf-N (Drosophila) (UniProt P11346); test: co-IP; S2 cells cotransfected with Src64B^act and V5-tagged Draf (FL), Draf-N or Draf-C; IP with anti-V5, blot with anti-Src64B
T1 sequence: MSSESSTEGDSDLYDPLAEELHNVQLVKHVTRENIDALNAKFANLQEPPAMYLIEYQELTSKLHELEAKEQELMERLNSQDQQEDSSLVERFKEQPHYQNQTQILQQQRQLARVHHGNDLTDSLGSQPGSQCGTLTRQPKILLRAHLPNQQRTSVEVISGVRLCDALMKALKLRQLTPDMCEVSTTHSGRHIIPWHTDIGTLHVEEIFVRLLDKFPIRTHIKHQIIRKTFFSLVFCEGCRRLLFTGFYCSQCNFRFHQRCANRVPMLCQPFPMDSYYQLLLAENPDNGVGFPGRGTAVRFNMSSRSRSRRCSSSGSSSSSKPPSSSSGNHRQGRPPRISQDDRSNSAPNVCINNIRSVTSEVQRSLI

[2] = biological target: T2, V5-tagged Draf-C^WT (Drosophila) (UniProt P11346); test: as above
T2 sequence: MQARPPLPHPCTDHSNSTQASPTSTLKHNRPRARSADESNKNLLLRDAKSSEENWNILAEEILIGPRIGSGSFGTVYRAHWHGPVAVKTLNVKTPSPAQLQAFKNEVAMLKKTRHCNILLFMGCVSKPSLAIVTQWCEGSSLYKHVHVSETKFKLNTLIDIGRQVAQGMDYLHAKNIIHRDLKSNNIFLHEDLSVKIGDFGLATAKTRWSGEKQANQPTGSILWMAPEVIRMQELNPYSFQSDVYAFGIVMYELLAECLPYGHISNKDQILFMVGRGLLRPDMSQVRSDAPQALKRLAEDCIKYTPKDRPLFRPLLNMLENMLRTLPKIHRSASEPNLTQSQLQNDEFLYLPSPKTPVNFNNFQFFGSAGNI

[3] = biological target: T3, V5-tagged full-length Draf (Drosophila) (UniProt P11346); test: as above
T3 sequence: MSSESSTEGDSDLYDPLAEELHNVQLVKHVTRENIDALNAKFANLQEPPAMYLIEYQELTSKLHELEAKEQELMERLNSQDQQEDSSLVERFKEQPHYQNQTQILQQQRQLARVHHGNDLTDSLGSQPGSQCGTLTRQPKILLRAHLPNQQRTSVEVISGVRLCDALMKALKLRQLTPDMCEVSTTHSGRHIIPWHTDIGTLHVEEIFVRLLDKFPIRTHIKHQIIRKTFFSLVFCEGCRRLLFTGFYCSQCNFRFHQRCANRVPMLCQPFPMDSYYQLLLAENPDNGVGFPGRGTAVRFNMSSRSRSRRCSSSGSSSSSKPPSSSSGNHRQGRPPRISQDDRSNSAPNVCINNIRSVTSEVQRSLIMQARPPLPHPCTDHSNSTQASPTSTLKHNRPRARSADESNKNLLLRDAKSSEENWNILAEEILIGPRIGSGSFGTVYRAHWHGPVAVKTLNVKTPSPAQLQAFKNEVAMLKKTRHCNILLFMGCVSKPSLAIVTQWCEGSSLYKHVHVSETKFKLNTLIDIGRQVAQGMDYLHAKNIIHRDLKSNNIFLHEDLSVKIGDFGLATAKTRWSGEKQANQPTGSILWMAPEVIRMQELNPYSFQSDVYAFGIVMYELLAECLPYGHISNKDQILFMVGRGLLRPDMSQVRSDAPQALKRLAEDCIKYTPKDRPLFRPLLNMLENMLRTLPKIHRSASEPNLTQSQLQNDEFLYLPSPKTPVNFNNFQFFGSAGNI

[4] = biological target: T4, V5-tagged Src64B^act (Drosophila) (UniProt P00528); test: co-IP; S2 cells transfected with V5-tagged Src64B^act or Src64B^KR; IP with anti-V5; endogenous Draf detected in the precipitate
T4 sequence: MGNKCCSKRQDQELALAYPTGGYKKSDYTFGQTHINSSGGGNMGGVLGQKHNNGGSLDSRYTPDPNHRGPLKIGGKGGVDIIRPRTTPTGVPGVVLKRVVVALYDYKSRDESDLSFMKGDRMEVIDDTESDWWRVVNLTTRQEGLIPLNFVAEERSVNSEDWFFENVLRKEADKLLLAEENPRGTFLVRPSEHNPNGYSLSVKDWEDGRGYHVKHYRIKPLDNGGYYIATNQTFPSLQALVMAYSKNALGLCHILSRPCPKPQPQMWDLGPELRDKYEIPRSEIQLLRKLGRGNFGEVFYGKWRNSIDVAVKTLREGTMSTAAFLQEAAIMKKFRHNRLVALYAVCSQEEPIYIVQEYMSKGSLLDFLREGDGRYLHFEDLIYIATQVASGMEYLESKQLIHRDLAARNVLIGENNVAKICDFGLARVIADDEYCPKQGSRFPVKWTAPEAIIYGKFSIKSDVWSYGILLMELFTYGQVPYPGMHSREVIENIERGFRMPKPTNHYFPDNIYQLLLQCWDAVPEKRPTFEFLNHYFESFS

HA-Draf-N (Drosophila) = biological target: T5, HA-Draf-N (Drosophila) (UniProt P11346); test: co-IP; S2 cells cotransfected with V5-tagged Draf-C variants with or without HA-Draf-N; IP with anti-HA, blot with anti-V5; three independent western blots quantified
T5 sequence: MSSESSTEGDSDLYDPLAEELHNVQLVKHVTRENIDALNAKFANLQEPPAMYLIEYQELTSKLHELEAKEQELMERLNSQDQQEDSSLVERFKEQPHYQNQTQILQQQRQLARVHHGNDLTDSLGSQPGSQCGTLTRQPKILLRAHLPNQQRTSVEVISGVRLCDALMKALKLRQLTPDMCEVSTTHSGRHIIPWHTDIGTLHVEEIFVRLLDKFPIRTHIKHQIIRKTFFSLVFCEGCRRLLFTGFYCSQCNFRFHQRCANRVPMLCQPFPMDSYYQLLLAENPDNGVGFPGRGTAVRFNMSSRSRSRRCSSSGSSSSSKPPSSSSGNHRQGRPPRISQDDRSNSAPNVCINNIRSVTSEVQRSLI

B1: Src64B^act (activated Src64B, non-tagged) (domain or fragment, UniProt P00528 1-540)
chain: MGNKCCSKRQDQELALAYPTGGYKKSDYTFGQTHINSSGGGNMGGVLGQKHNNGGSLDSRYTPDPNHRGPLKIGGKGGVDIIRPRTTPTGVPGVVLKRVVVALYDYKSRDESDLSFMKGDRMEVIDDTESDWWRVVNLTTRQEGLIPLNFVAEERSVNSEDWFFENVLRKEADKLLLAEENPRGTFLVRPSEHNPNGYSLSVKDWEDGRGYHVKHYRIKPLDNGGYYIATNQTFPSLQALVMAYSKNALGLCHILSRPCPKPQPQMWDLGPELRDKYEIPRSEIQLLRKLGRGNFGEVFYGKWRNSIDVAVKTLREGTMSTAAFLQEAAIMKKFRHNRLVALYAVCSQEEPIYIVQEYMSKGSLLDFLREGDGRYLHFEDLIYIATQVASGMEYLESKQLIHRDLAARNVLIGENNVAKICDFGLARVIADDEYCPKQGSRFPVKWTAPEAIIYGKFSIKSDVWSYGILLMELFTYGQVPYPGMHSREVIENIERGFRMPKPTNHYFPDNIYQLLLQCWDAVPEKRPTFEFLNHYFESFS
B1 was tested, and the binding [1] was “binds”, the binding [2] was “binds weakly” and the binding [3] was “binds”.

B2: endogenous Draf (protein, UniProt P11346 1-739)
chain: MSSESSTEGDSDLYDPLAEELHNVQLVKHVTRENIDALNAKFANLQEPPAMYLIEYQELTSKLHELEAKEQELMERLNSQDQQEDSSLVERFKEQPHYQNQTQILQQQRQLARVHHGNDLTDSLGSQPGSQCGTLTRQPKILLRAHLPNQQRTSVEVISGVRLCDALMKALKLRQLTPDMCEVSTTHSGRHIIPWHTDIGTLHVEEIFVRLLDKFPIRTHIKHQIIRKTFFSLVFCEGCRRLLFTGFYCSQCNFRFHQRCANRVPMLCQPFPMDSYYQLLLAENPDNGVGFPGRGTAVRFNMSSRSRSRRCSSSGSSSSSKPPSSSSGNHRQGRPPRISQDDRSNSAPNVCINNIRSVTSEVQRSLIMQARPPLPHPCTDHSNSTQASPTSTLKHNRPRARSADESNKNLLLRDAKSSEENWNILAEEILIGPRIGSGSFGTVYRAHWHGPVAVKTLNVKTPSPAQLQAFKNEVAMLKKTRHCNILLFMGCVSKPSLAIVTQWCEGSSLYKHVHVSETKFKLNTLIDIGRQVAQGMDYLHAKNIIHRDLKSNNIFLHEDLSVKIGDFGLATAKTRWSGEKQANQPTGSILWMAPEVIRMQELNPYSFQSDVYAFGIVMYELLAECLPYGHISNKDQILFMVGRGLLRPDMSQVRSDAPQALKRLAEDCIKYTPKDRPLFRPLLNMLENMLRTLPKIHRSASEPNLTQSQLQNDEFLYLPSPKTPVNFNNFQFFGSAGNI
For B2, the binding [4] was “binds”.

B3: V5-tagged Draf-C^WT (domain or fragment, UniProt P11346 368-739)
chain: MQARPPLPHPCTDHSNSTQASPTSTLKHNRPRARSADESNKNLLLRDAKSSEENWNILAEEILIGPRIGSGSFGTVYRAHWHGPVAVKTLNVKTPSPAQLQAFKNEVAMLKKTRHCNILLFMGCVSKPSLAIVTQWCEGSSLYKHVHVSETKFKLNTLIDIGRQVAQGMDYLHAKNIIHRDLKSNNIFLHEDLSVKIGDFGLATAKTRWSGEKQANQPTGSILWMAPEVIRMQELNPYSFQSDVYAFGIVMYELLAECLPYGHISNKDQILFMVGRGLLRPDMSQVRSDAPQALKRLAEDCIKYTPKDRPLFRPLLNMLENMLRTLPKIHRSASEPNLTQSQLQNDEFLYLPSPKTPVNFNNFQFFGSAGNI
With B3 the binding (HA-Draf-N (Drosophila)) was “binds”.
